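A panel of P. falciparum strains inside erythrocytes is exposed to compounds for three days, then a DNA-binding dye reports the amount of parasite DNA. Each compound was titrated across a series from about 0.000037 to 29 µM. The number is the fitted AC50, the concentration giving a half-maximal change in signal; a lower value means higher potency, whether the curve shows a decrease or an increase. Calls follow the curve class and fit quality: every row here is inconclusive, covering signal-raising curves and weak, poorly fitted, partial or highest-dose-only inhibition curves.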

Values are in nM. Every entry below has the call inconclusive. Only part of the assay is shown, chiefly results filed as inconclusive. Potencies fitted to partial, single-point or poorly fitting curves are rough.

{"compound": "Cc1ccc(O)c2ncccc12", "tested on / at": "P94_40", "potency (nM)": "19952", "curve as filed": "inhibitor, single point"}
{"compound": "Cc1ccc(O)c2ncccc12", "tested on / at": "DFO2036", "potency (nM)": "12589", "curve as filed": "inhibitor, partial curve, poor fit"}
{"compound": "Cc1ccc(O)c2ncccc12", "tested on / at": "ECU", "potency (nM)": "17782", "curve as filed": "inhibitor, single point"}
{"compound": "Cc1ccc(O)c2ncccc12", "tested on / at": "ICS", "potency (nM)": "14125", "curve as filed": "inhibitor, partial curve, poor fit"}
{"compound": "Cc1ccc(O)c2ncccc12", "tested on / at": "CP335", "potency (nM)": "19011", "curve as filed": "inhibitor, partial curve, poor fit"}
{"compound": "Cc1ccc(O)c2ncccc12", "tested on / at": "Dd2", "potency (nM)": "11220", "curve as filed": "inhibitor, partial curve"}
{"compound": "c1ccc(CN(CC2=NCCN2)c2ccccc2)cc1", "tested on / at": "CP260", "potency (nM)": "11220", "curve as filed": "inhibitor, single point"}
{"compound": "c1ccc(CN(CC2=NCCN2)c2ccccc2)cc1", "tested on / at": "SC27B", "potency (nM)": "17782", "curve as filed": "inhibitor, single point"}
{"compound": "c1ccc(CN(CC2=NCCN2)c2ccccc2)cc1", "tested on / at": "CP268", "potency (nM)": "16944", "curve as filed": "inhibitor, single point"}
{"compound": "c1ccc(CN(CC2=NCCN2)c2ccccc2)cc1", "tested on / at": "TAB109", "potency (nM)": "11220", "curve as filed": "inhibitor, single point"}
{"compound": "c1ccc(CN(CC2=NCCN2)c2ccccc2)cc1", "tested on / at": "PAD", "potency (nM)": "5012", "curve as filed": "inhibitor, partial curve"}
{"compound": "c1ccc(CN(CC2=NCCN2)c2ccccc2)cc1", "tested on / at": "N140", "potency (nM)": "14125", "curve as filed": "inhibitor, single point"}
{"compound": "c1ccc(CN(CC2=NCCN2)c2ccccc2)cc1", "tested on / at": "CP238", "potency (nM)": "11220", "curve as filed": "inhibitor, single point"}
{"compound": "CC(C)(C)c1cc(O)ccc1O", "tested on / at": "CP256", "potency (nM)": "17782", "curve as filed": "inhibitor, single point"}
{"compound": "CC(C)(C)c1cc(O)ccc1O", "tested on / at": "CP215", "potency (nM)": "16944", "curve as filed": "inhibitor, single point"}
{"compound": "CC(C)(C)c1cc(O)ccc1O", "tested on / at": "CP260", "potency (nM)": "11220", "curve as filed": "inhibitor, single point"}
{"compound": "CC(C)(C)c1cc(O)ccc1O", "tested on / at": "DFO2036", "potency (nM)": "17782", "curve as filed": "inhibitor, single point"}
{"compound": "CC(C)(C)c1cc(O)ccc1O", "tested on / at": "CP203", "potency (nM)": "19011", "curve as filed": "inhibitor, single point"}
{"compound": "CC(C)(C)c1cc(O)ccc1O", "tested on / at": "CP325", "potency (nM)": "11995", "curve as filed": "inhibitor, single point"}
{"compound": "CC(C)(C)c1cc(O)ccc1O", "tested on / at": "CP297", "potency (nM)": "16944", "curve as filed": "inhibitor, single point"}
{"compound": "CC(C)(C)c1cc(O)ccc1O", "tested on / at": "FAB9", "potency (nM)": "10000", "curve as filed": "inhibitor, single point"}
{"compound": "CC(C)(C)c1cc(O)ccc1O", "tested on / at": "TAB113", "potency (nM)": "17782", "curve as filed": "inhibitor, single point"}
{"compound": "CC(C)(C)c1cc(O)ccc1O", "tested on / at": "TAB109", "potency (nM)": "8912", "curve as filed": "inhibitor, single point"}
{"compound": "CC(C)(C)c1cc(O)ccc1O", "tested on / at": "TAB165", "potency (nM)": "10000", "curve as filed": "inhibitor, single point"}
{"compound": "CC(C)(C)c1cc(O)ccc1O", "tested on / at": "3D7", "potency (nM)": "11220", "curve as filed": "inhibitor, single point"}
{"compound": "CC(C)(C)c1cc(O)ccc1O", "tested on / at": "CP192", "potency (nM)": "16944", "curve as filed": "inhibitor, single point"}
{"compound": "CC(C)(C)c1cc(O)ccc1O", "tested on / at": "CP329", "potency (nM)": "16944", "curve as filed": "inhibitor, single point"}
{"compound": "CC(C)(C)c1cc(O)ccc1O", "tested on / at": "C2A", "potency (nM)": "1122", "curve as filed": "inhibitor, partial curve"}
{"compound": "CC(C)(C)c1cc(O)ccc1O", "tested on / at": "CP237", "potency (nM)": "11220", "curve as filed": "inhibitor, single point"}
{"compound": "CC(C)(C)c1cc(O)ccc1O", "tested on / at": "parasite line B", "potency (nM)": "17782", "curve as filed": "inhibitor, single point"}
{"compound": "CC(C)(C)c1cc(O)ccc1O", "tested on / at": "CP291", "potency (nM)": "16944", "curve as filed": "inhibitor, single point"}

For reference, 3 entries once more:

| Compound | tested on / at | potency (nM) | curve as filed |
|---|---|---|---|
| `Cc1ccc(O)c2ncccc12` | CP335 | 19011 | inhibitor, partial curve, poor fit |
| `CC(C)(C)c1cc(O)ccc1O` | CP203 | 19011 | inhibitor, single point |
| `CC(C)(C)c1cc(O)ccc1O` | TAB109 | 8912 | inhibitor, single point |

The results are deposited in PubChem (AID504749; NCATS, 2011).